Test results published in US11185522B2, “Cilastatin for use in the treatment of sepsis” (FUNDACIÓN PARA LA INVESTIGACIÓN BIOMÉDICA DEL HOSPITAL …, priority 2016, dated 2021).

Test system: CLP-induced sepsis rats
Details: mean±s.e.m.
Method: Sepsis was developed by cecal ligation puncture model (CLP) as described in several papers (Li G et al, Clin Exp Pharmacol Physiol. 2014; 41(7):459-68, Seija M et al, Shock. 2012; 38(4):403-10). Animals were anesthetized with ketamine (Ketolar 50 mg/ml) 90 mg/kg intraperitoneal (ip) and diazepam (Valium 10 mg/2 mL) 5 mg/kg ip. Under sterile conditions a 3-cm midline laparotomy was performed to allow exposure of the cecum, and a 4-0 silk ligature was placed 0.75 cm from the cecal tip. It was punctured once with a 14-gauge needle. A second ligature was placed 1.5 cm proximal to the first one and distal to the ileocecal valve to avoid intestinal obstruction. Three punctures were made in the cecum between the two ligatures with a 16-gauge needle. The cecum was gently squeezed until a 1-mm column of fecal material was exteriorized. The bowel was then returned to the abdomen and the incision was closed in layers. A sham operation (laparotomy and cecal exposure without any other manipulation) was performed as control. At the end of the operation, all rats were resuscitated with normal saline (50 ml/kg body weight) subcutaneously in a single dose and analgesic treatment with buprenorphine (buprex 0.3 mg/ml) 0.1 mg/kg every 12 hours immediately after surgery and until the day of killing.
Serum creatinine, blood urea nitrogen levels (BUN), proteins and other parameters were measured using the Dimension RxL autoanalyzer (Dade-Behring, Siemens, Eschborn, Germany). The glomerular filtration rate was calculated using the creatinine clearance rate.
The animals were randomly allocated into four groups (n=10 in each group): • i. sham-operated group, • ii. CLP group, • iii. sham-operated group+cilastatin, and • iv. CLP group+cilastatin.
In the treatment groups, the rats were treated with cilastatin 150 mg/kg ip immediately and at 24 h after induction of sepsis or the sham-operation. Cilastatin was substituted by vehicle (0.5 mL/100 g) in the non-treatment groups. […] All animals were then placed in the metabolic cages for 24-h urine collection.
Forty-eight (48) hours after the sepsis-induction/sham-operation, all rats were anesthetized with ketamine (10 mg/kg) and diazepam (4 mg/kg) and killed. Blood samples were collected by insertion of a cannula into the abdominal aorta, and serum was isolated by centrifugation in ACUETTE® Z Serum Sep Clot Activator tubes (Greiner bio-one), at 2000 rpm for 15 h at 4° C., and then stored at −80° C. until use. The kidneys were perfused with cold saline and quickly removed. Kidney samples were snap-frozen in liquid nitrogen and kept at −80° C. or fixed in 4% paraformaldehyde (24 h) and paraffin-embedded for the different studies.

[1] = SHAM+cil group, 48 hours after sham operation, cilastatin 150 mg/kg ip immediately and at 24 h

SMILES: CC1(C)C[C@@H]1C(=O)N/C(=C\CCCCSC[C@H](N)C(=O)O)C(=O)O [cilastatin, (Z)-7-[(2R)-2-Amino-3-hydroxy-3-oxopropyl]sulfanyl-2-{[(1S)-2,2-dimethylcyclopropanecarbonyl]amino}hept-2-enoic acid]
- Proteinuria (SHAM+cil group (second value, group not labelled), 48 hours, cilastatin 150 mg/kg ip): 1983±226
- Blood urea nitrogen [1]: 81±4
- Serum creatinine [1]: 0.46±0.01
- Glomerular filtration rate (SHAM+cil group, 48 hours, calculated using the creatinine clearance rate, cilastatin 150 mg/kg ip): 0.38±0.06
